Source: patent US11793816B2, “Methods for enhancing cytotoxic cancer therapy through inhibition of ATG4B” (Northwestern University, priority 2019, dated 2023)
At least one structure is not confirmed: it was looked up by name or label, or the drawing left a doubt.

Tested on: intracranial PDX GBM39 tumor xenografts
Experiment: Intracranial PDX GBM39 xenograft model (BLI, body weight, survival)
Details: monotherapy

How did the “growth of intracranial tumors (body weight, bioluminescence)” value turn out when `Cn1nnc2c(C(N)=O)ncn2c1=O` [TMZ, temozolomide] was run?
The value was “marked suppression”.
